According to the supplement of paper PMC12823440, “Inhibitors supercharge kinase turnover through native proteolytic circuits” (Nature, 2025):
Counter-ions that a name gives are not always drawn. The list shows a part of the results. Hit calls seldom repeat between salt and free forms of one compound.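 Kinases, fused to nanoluciferase, were expressed in K562 cells; luminescence was measured every 4 h from 2 to 18 h as percent of control (DMSO = 100%, positive control = 0%). A time point is decreased if signal falls significantly (2 sigma). Hits were called by the authors by a rule that is not shown; the count of time points alone does not decide it.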

Sequences of proteins named here, by UniProt entry; tags and fusion partners are left off. A change or cut given only in a name is not applied to a line headed by its entry.
UniProt P10398: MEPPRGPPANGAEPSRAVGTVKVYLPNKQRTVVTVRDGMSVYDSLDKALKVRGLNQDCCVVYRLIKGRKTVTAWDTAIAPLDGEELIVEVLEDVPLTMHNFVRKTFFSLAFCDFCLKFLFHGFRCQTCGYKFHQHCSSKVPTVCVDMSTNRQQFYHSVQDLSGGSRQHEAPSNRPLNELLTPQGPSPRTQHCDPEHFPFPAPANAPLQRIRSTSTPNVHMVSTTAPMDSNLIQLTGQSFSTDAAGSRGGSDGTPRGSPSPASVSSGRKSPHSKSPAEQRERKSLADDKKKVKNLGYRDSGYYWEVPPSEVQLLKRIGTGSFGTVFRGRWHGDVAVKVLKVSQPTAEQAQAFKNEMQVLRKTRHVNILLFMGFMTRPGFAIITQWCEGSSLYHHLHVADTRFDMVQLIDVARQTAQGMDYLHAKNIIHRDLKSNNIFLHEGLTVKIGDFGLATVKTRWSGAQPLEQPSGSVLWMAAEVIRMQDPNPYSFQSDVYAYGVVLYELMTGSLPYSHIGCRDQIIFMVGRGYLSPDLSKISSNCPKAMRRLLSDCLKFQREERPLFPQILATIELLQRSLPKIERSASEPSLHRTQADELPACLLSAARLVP

target: ARAF (UniProt P10398); experiment: kinase-Nluc reporter destabilization hit call (1 = scored as downregulated) (binary); higher = compound decreases kinase abundance; details: K562; 2-18 h

kinase-Nluc reporter destabilization hit call, inactive:
CC(C)CCN1c2nc(Nc3cc(F)c(O)c(F)c3)ncc2N(C)C(=O)C1C (stereo not drawn) (2.5 µM) 0, CC(C)=CC[C@@H](O)C1=CC(=O)c2c(O)ccc(O)c2C1=O [Shikonin] (10 µM) 0, CCC(=O)Nc1cccc(Oc2nc(Nc3ccc(N4CCN(C)CC4)cc3OC)ncc2Cl)c1 (10 µM) 0, CC(C)=CCC/C(C)=C/CC/C(C)=C/C=C/C(C)=C/C(=O)O [Peretinoin] (10 µM) 0, COc1ccc2c(Oc3ccc4c(C(=O)Nc5ccccc5N)cccc4c3)ccnc2c1 [Chiauranib] (10 µM) 0, Cc1nn(C)cc1-c1nc2c(N3CCN(Cc4ccc(Cl)cc4)CC3)c(Cl)cnc2[nH]1 (10 µM) 0, CNC(=O)c1cc2c(Oc3ccc(NC(=O)C4(C(=O)Nc5ccc(F)cc5)CC4)cc3)ccnc2cc1OC (2.5 µM) 0, O=C(Nc1cccnc1)c1cc(-c2ccnc(F)c2)ccc1OCc1ccccc1 (10 µM) 0, CN(C)c1ccc(-c2nc3ncc(Cl)c(N4CCN(CC(=O)Nc5nccs5)CC4)c3[nH]2)cc1 (2 µM) 0, Cc1cc(C(=O)NC(C)(C)C)cc(C#Cc2ccc3c4c(oc3c2)C(C)(C)c2cc(NS(C)(=O)=O)ccc2C4=O)n1 (10 µM) 0, O=C(O)c1cc(N(Cc2ccccc2O)Cc2cc(O)ccc2O)ccc1O [Lavendustin A] (10 µM) 0, C[C@@H](Nc1ncnc2[nH]c(-c3ccc(O)cc3)cc12)c1ccccc1 (2.5 µM) 0, O=C(O)c1ccc(/C=C/S(=O)(=O)Cc2ccc(Cl)cc2)cc1 [Recilisib] (10 µM) 0, Nc1nc(NCCNc2ncc(-n3ccnc3)c(-c3ccc(Cl)cc3Cl)n2)ccc1[N+](=O)[O-] (2.5 µM) 0, Cc1cnc(NC(=O)c2cc(Oc3cnc(C(=O)N(C)C)nc3)c3cc(C)oc3c2)cn1 (10 µM) 0, CNC(=O)CNc1cnc2ccc(-c3ccc(OC)c(OC)c3)cc2n1 (10 µM) 0, N[C@@H]1CCCN(c2c(/C=C3\SC(=O)NC3=O)cccc2-c2ccccc2)C1 (10 µM) 0, CO[C@H]1C[C@@H]2CC[C@@H](C)[C@@](O)(O2)C(=O)C(=O)N2CCCC[C@H]2C(=O)O[C@H]([C@H](C)C[C@@H]2CC[C@@H](OC(=O)C(C)(CO)CO)[C@H](OC)C2)CC(=O)[C@H](C)/C=C(\C)[C@@H](O)[C@@H](OC)C(=O)[C@H](C)C[C@H](C)/C=C/C=C/C=C/1C [Temsirolimus] (2.5 µM) 0, COc1cc2nccc(Oc3ccc(NC(=O)c4cn(C(C)C)c(=O)n(-c5ccc(F)cc5)c4=O)cc3F)c2cc1OC (0.5 µM) 0, C=C1CCC[C@]2(C)C=C3OC(=O)C(C)=C3C[C@@H]12 [Atractylenolide I] (10 µM) 0, C=CC(=O)Nc1cc(Nc2nccc(-c3cn(C)c4ccccc34)n2)c(OC)cc1OCCN(C)C [Rezivertinib] (2.5 µM) 0, C=C1C(=O)[C@@]23[C@H](O)C[C@@H]4C(C)(C)C(=O)CC[C@@]4(C)[C@@H]2CC[C@@H]1[C@H]3O [Glaucocalyxin A] (2.5 µM) 0, NC1(C(=O)NCCCn2cc(-c3ccc(OC(F)(F)F)cc3)c3cc(CN4CCN(Cc5c(Cl)cccc5Cl)CC4)ccc32)CCNCC1 (2.5 µM) 0, CC(Sc1nc2c(cnn2-c2cccc(Cl)c2)c(=O)[nH]1)C(N)=O (stereo not drawn) (10 µM) 0, Fc1ccc2[nH]ccc2c1-c1nc(N2CCOCC2)c2sc(CN3CCN(CC4CC4)CC3)cc2n1 (10 µM) 0, Cn1cc(-c2cc(Oc3cc(F)c(NC(=O)C4(C(=O)Nc5ccccc5)CC4)cc3F)ccn2)cn1 (2.5 µM) 0, COc1ccc(S(=O)(=O)Nc2cc(-c3c(O)ccc4ccccc34)c(O)c3ccccc23)cc1 (10 µM) 0, Cn1c2cc([S+](C)[O-])sc2c2cnn(Cc3cccc(N)c3)c(=O)c21 (stereo not drawn) (2.5 µM) 0, O=C(NCCO)c1cc(C(=O)NCCO)cc(C(=O)NCCO)c1 (10 µM) 0, N#Cc1cnc2c(Cl)cc(NCc3cn(CCN4CCCCCC4)nn3)cc2c1Nc1ccc(F)c(Cl)c1 [Cot inhibitor-1] (10 µM) 0, Cn1c(=O)c2c(nc(S(C)(=O)=O)n2C)n(CC#Cc2cccc(O)c2)c1=O (2.5 µM) 0, Cc1ccc(C)c(OCCn2cc(C(=O)O)c3ccccc32)c1 (10 µM) 0, C=CC(=O)Nc1ccc(C(=O)Nc2[nH]nc3c2CN(C(=O)N[C@H](CN(C)C)c2ccccc2)C3(C)C)cc1 (10 µM) 0, Nc1ncnc2c1nc(Br)n2[C@@H]1O[C@@H]2COP(=O)(O)O[C@H]2[C@H]1O [8-Bromo-cAMP sodium salt] (10 µM) 0, O=c1[nH]ccc2nc(-c3ccc(CN4CCC(c5nc(-c6ccccn6)n[nH]5)CC4)cc3)c(-c3ccccc3)cc12 (10 µM) 0, COc1ccc(Nc2ncc(C(F)(F)F)c(NC3CC3)n2)cc1OC (10 µM) 0, O=C1NC(=O)/C(=C\c2c[nH]c(=O)c(-c3ccc(N4CCNCC4)nc3)c2)S1 [Protein kinase inhibitors 1 hydrochloride] (10 µM) 0, CCN(CC)CCCC(C)Nc1nc(C)cc(Nc2ccc3nc(C)cc(N)c3c2)n1 (stereo not drawn) (10 µM) 0
